Consider 42 molecules from PubChem BioAssay AID2685 (National Center for Advancing Translational Sciences (NCATS), 2010).

SMILES strings stand for the structures. Some of the results follow. Further columns of the screen follow, without active or inactive calls. Most of these compounds were active or inconclusive in the main read-out, so they are no random draw. Words in brackets tell the shape of the fitted curve; partial curves, single points and poor fits give uncertain potencies.

The assay can be described thus: qHTS Assay for Lipid Storage Modulators in Drosophila S3 Cells.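 As to cell number change: cells counted by Cell Tracker Red CMTPX staining in the red channel.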 As to conditions: BODIPY lipid droplet fluorescence, 18-24 h; for cell number change: measured here: cell count max response, cells fed with added oleic acid. Summed up:
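Drosophila S3 cells loaded with oleic acid (400 uM, as added) and compounds at several concentrations; lipid droplets imaged by 488-nm laser-scanning cytometry, 500–530 nm intensity and object ratio to cell channel. Percent activity normalized to 20 uM Triacsin C.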

[1] abbreviates: measured here: cell number channel AC50, cells fed with added oleic acid.
The mark [2] stands for this setting: measured here: lipid fluorescence (Fed channel) AC50, cells fed with added oleic acid.

A word on the AC50: it is the concentration giving half of the maximal activity seen. Lower therefore signals greater potency. As to `COc1ccc(CC(NC(C)=O)C(=O)NC2CCN(c3ncccc3[N+](=O)[O-])CC2)cc1` (stereo not given), the cell number change came out at 46.7%. Also, the AC50 under setting [1] was 29.1 µM [rising, single point]. The AC50 under setting [2] was 0.461 µM [rising, partial curve, poor fit].
With `CCOC(=O)c1c(/N=C/c2cc([N+](=O)[O-])ccc2O)sc(C)c1C`, the cell number change amounted to 1.71%. Further, the AC50 under setting [1] is 0.092 µM [falling, full curve, poor fit]. The AC50 under setting [2] is 0.0651 µM [falling, partial curve, poor fit].
On to `COc1ccc(/C=C/C(=O)Oc2cccc(/C=N/NC(=O)Cc3ccc(Br)cc3)c2)cc1`, for which the cell number change was 5.41%. In addition, under setting [2], the AC50 was 3.26 µM [rising, single point].
As for `CCN(CC)C(=O)CSc1nc2cc3c(cc2c(=O)n1Cc1ccc2c(c1)OCO2)OCO3`, under setting [1], the AC50 was 0.58 µM [rising, full curve, poor fit].
For the molecule `CNC(=O)COC(=O)c1ccccc1Nc1ccccc1`, the AC50 under setting [2] was 20.6 µM [falling, partial curve].
The same measure, in the same setting: the value for `CN1CCN(C(=O)/C(=C/c2cn(S(=O)(=O)N(C)C)c3ccccc23)NC(=O)c2ccccc2Cl)CC1` was 0.58 µM [rising, single point].
`CC(C)CCNC(=O)CCS(=O)(=O)c1cccc2nonc12`: the cell number change came out at 2.18%. Besides, under setting [2], the AC50 was 18.4 µM [rising, single point].
In the case of `CCOc1cc(S(=O)(=O)n2nc(C)cc2C)ccc1F`, the AC50 under setting [2] was 29.1 µM [rising, single point].
`CCOC(=O)c1ccc(Nc2ccc(-c3ccc(OC)c(OC)c3)nn2)cc1`: the cell number change is -40.6%. Moreover, under setting [1], the AC50 is 14.6 µM [falling, partial curve]. In addition, the AC50 under setting [2] is 32.6 µM [falling, single point].
Consider `CC(C)(C)c1nc(NCC2CCCO2)c2nnn(Cc3ccccc3)c2n1` (stereo not given), for which the cell number change came to 5.23%. Moreover, the AC50 under setting [2] was 5.17 µM [rising, single point].
`O=[N+]([O-])c1ccc(N2CCN(c3ccccc3O)CC2)cc1`: the cell number change came out at 21.8%.
As to `O=C(COC(=O)COc1ccccc1F)Nc1ccc2c(c1)OCO2`, the cell number change stood at 0.211%. The AC50 under setting [2] is 0.58 µM [falling, single point].
Regarding `Cc1cc(NCCOCCO)n2ncc(-c3ccc(Cl)cc3)c2n1`, the cell number change is -10.1%.
Turning to `CC1CN(C(=O)CNC(=O)Cc2cccc3ccccc23)CC(C)O1` (stereo not given), the AC50 under setting [2] is 29.1 µM [falling, single point].
Consider `O=S(=O)(c1ccccc1)N1CCN(Cc2cc3c(cc2Br)OCCO3)CC1`, for which the cell number change was found to be 30.5%. In addition, the AC50 under setting [2] is 0.146 µM [rising, full curve, poor fit].
Turning to `CN(C)C(=O)C1CCC(=O)N1Cc1cccs1` (stereo not given), the cell number change worked out at 9.9%.
Turning to `Cc1ccc2nc(-c3ccccc3)cc(C(=O)N3CCN(S(=O)(=O)c4c(C)noc4C)CC3)c2c1`, the cell number change was -19.2%.
For the molecule `O=C(c1ccc(S(=O)(=O)N2CCOCC2)cc1)N1CCc2ccccc21`, the cell number change is -14.3%.
As for `COc1cccc(NC(=O)CN(C)CC(=O)Nc2ccccc2-c2ccccc2)c1`, the cell number change is -19.9%. Also, under setting [1], the AC50 is 6.51 µM [rising, single point]. The concentration at half-maximal activity (AC50) under setting [2] was 6.51 µM [rising, partial curve].
With `COc1ccc(COC(=O)CCS(=O)(=O)c2ccc(C)cc2)cc1`, the cell number change was -23.9%. The AC50 under setting [1] was 1.84 µM [falling, full curve, poor fit].
Take `COCCOC(=O)C1=C(C)N=C2SCCC(=O)N2C1/C=C/c1ccccc1` (stereo not given): the cell number change was -14.1%. Under setting [2], the AC50 is 2.31 µM [rising, single point].
On to `CC(C)OC(=O)/C(=C/c1ccc(Br)cc1)NC(=O)c1ccco1`, for which the cell number change was determined as 26.4%.
Consider `CN(C)S(=O)(=O)c1ccc2c(c1)nc(CCC(=O)O)n2C`, for which the cell number change was 16.4%.
With `CCOc1ncccc1C(=O)OCC(=O)c1cc(C)n(Cc2ccco2)c1C`, the cell number change is -15.5%. The AC50 under setting [2] was 29.1 µM [rising, single point].
Turning to `Cn1nccc1C(=O)N1CCN(c2ncccn2)CC1`, the cell number change is -22.3%.
For `CCOC(=O)c1sc(NNC(=O)c2ccc(C)cc2)nc1C`, the AC50 under setting [2] was 4.61 µM [rising, partial curve, poor fit].
In the case of `CC1=C(C(=O)OCC2CCCCC2)C(c2cccc(O)c2)NC(=O)N1` (stereo not given), the cell number change was 13.9%.
For `Cc1c(C(=O)N2c3ccccc3CC2C)oc2ccccc12` (stereo not given), the cell number change was -7.23%.
For the molecule `Cc1ccccc1OCC(=O)OCC(=O)NCC1CCCO1` (stereo not given), the cell number change worked out at 19.7%. Moreover, the AC50 under setting [2] is 0.00461 µM [falling, full curve, poor fit].
For `COc1ccc(-n2c(Cc3cccn3C)nnc2SCC(=O)NCC2CCCO2)cc1` (stereo not given), the cell number change stood at 41.6%. Also, the AC50 under setting [1] was 23.1 µM [rising, single point].
With `Cc1ccc(CCNC(=O)c2c[nH]c3ccc(S(=O)(=O)Nc4ccc(C)cc4C)cc3c2=O)cc1`, the cell number change was determined as 13.6%.
As to `COc1ccc(C)cc1NC(=O)CN(C)S(=O)(=O)c1ccc2c(c1)n(C)c(=O)c(=O)n2C`, the cell number change was -15.8%. Besides, the AC50 under setting [2] was 0.651 µM [falling, full curve].
Consider `COc1ccc(/C=N/NC(=O)c2ccncc2)cc1Cn1nc([N+](=O)[O-])c(Br)c1C`, for which the cell number change is 2.73%.
For `CCOC(=O)C1CCCN(C(=O)c2ccc(OC)c([N+](=O)[O-])c2)C1` (stereo not given), the cell number change was 33.3%. For the same molecule, the AC50 under setting [1] was 29.1 µM [rising, single point].
As for `O=C(CSc1nnc(COc2ccccc2)n1Cc1ccco1)c1ccc(F)cc1`, the cell number change is -13.9%. Moreover, the AC50 under setting [1] was 7.31 µM [falling, single point]. The AC50 under setting [2] is 9.2 µM [falling, partial curve].
Consider `Cc1cc(C(=O)N/N=C/c2c(CO)cnc(C)c2O)c2ccccc2n1`, for which the AC50 under setting [2] is 7.31 µM [falling, partial curve].
On to `O=C(COc1ccc(Cl)cc1Cl)Nc1nnc(C2=COCCO2)o1`, for which the cell number change came to 18.2%. Further, the AC50 under setting [1] is 0.0731 µM [rising, full curve, poor fit]. Besides, the AC50 under setting [2] was 0.092 µM [rising, full curve, poor fit].
With `CSc1ccccc1NC(=O)CN(C)C(=O)c1cccc(S(=O)(=O)N(C)C)c1`, the cell number change amounted to 36.7%.
In the case of `Cc1[nH]c(=O)c(C#N)cc1-c1ccncc1`, the cell number change was -7.75%.
As for `O=C(NCCNCc1cccs1)c1ccccc1F`, the cell number change amounted to 42.4%. Further, under setting [1], the AC50 is 5.8 µM [rising, partial curve]. Under setting [2], the AC50 was 29.1 µM [rising, single point].
Consider `N#Cc1cccn1-c1nccs1`, for which the AC50 under setting [2] is 0.291 µM [falling, partial curve, poor fit].
As to `COc1ccc(S(=O)(=O)N(C)CC(=O)NCc2cccnc2)cc1Cl`, the cell number change worked out at 38.5%. The AC50 under setting [1] was 23.1 µM [rising, single point]. In addition, the half-maximal activity concentration (AC50) under setting [2] is 29.1 µM [rising, single point].
